Results published in patent publication US20250353895A1, “METHOD FOR ANALYZING G-PROTEIN CONJUGATED RECEPTOR” (Kao Corporation, priority 2022, published 2025).

Test system: HEK293 cells
Assay: Measurement of receptor protein level on cell membrane (flow cytometry), receptor gene co-transfected with RTP1S
Type: cell-based, human
Conditions: consensus receptor on HEK293 cells; PE signal normalised, NC (no receptor) 0%, PC (FLAG-M2 acetylcholine receptor) 100%; average of three experiments

B1: consensus MrgprE: consensus GPCR of human MrgprE (protein)
chain: MEPREAGQHVGAANGAQEDVAFNLIILSLTEGLGLGGLLGNGAVLWLLSSNVYRNPFSIYLLDVACADLIFLGCHMVAIIPDLLQGRLDFPGFVQTSLATLRFFCYIVGLSLLAAVSVEQCLATLFPAWYSCRRPRHLTTCVCALTWALCLLLHLLLSGACTQFFGEPSRHLCRTLWLVAAVLLALLCCTMCGASLLLLLRVERGPQRPQPRGFPGLVLLAVLLFLFCGLPFGIYWLSRNLLWHIPHYFYHFSFLMAAVHCAAKPVIYFCLGSAQGRRLPLRLVLQRALGDEAELGAVRETSRRGLVDIAA
Consensus Membrane expression level (%): 27.41%

B2: consensus MrgprF: consensus GPCR of human MrgprF (protein)
chain: MAGNCSWEAHPGNRNKMCPGLSEAPELYSRGFLTIEQIAMLPPPAVMNYIFLLLCLCGLVGNGLVLWFFGFSIKRNPFSIYFLHLASADVGYLFSKAVFSILNTGGFLGTFADYVRAVCRILGLCMFLTGVSLLPAISAERCLSVIFPAWYWRRRPKRLSAVVCALLWVLSLLVTCIHNYFCVFLGRGASGAACRHMDIFLGILLFLVFCPLMVLPCLALILHVECRARRRQRSAKLNHVILAMVSVFLVSSIYLGIDWFLFWVFQIPAPFPEYVTDLCICINSSAKPVVYFLAGRDKSQRLWEPLRVVFQRALRDGAELGEAGGGTPNTVTMEMQCPSGNAS
Consensus Membrane expression level (%): 136.39%

B3: consensus GPR31: consensus GPCR of human GPR31 (protein)
chain: MPFPNCSAPSTVVETAVAVLLGLECGLGLLGNAVALWTFFFRLKVWKPYAVYLLNLVLADLLLAACLPFLAAFYLRLKTWHLGRVGCQALLFLLDLSRGVGVAFLTAVALDRYLRVVHPRLKVNLLSPRAAWGISGLVWLLMVALTHLSLISESTECPSFYPRDGSFSIIWQEALFFLQFVLPFGLILFCNAGIIRTLQKRLRDPDKQPKLQRAQALVTLVVVLFALCFLPSFLARVLMAIFRNLGSCRALCAVVHTSDVTGSLTYLQSVLNPVVYCFSNPAFRSSYRKVFHLRGRGQAAEPPGFDPRDSYS
Consensus Membrane expression level (%): 112.78%

B4: consensus GPR65: consensus GPCR of human GPR65 (protein)
chain: MNSTCIEEQHDLDHYLFPIVYIFVIIVSIPANIGSLCVSFLQAKKENELGIYLFSLSLSDLLYALTLPLWIDYTWNKDNWTFSPALCKGSAFLMYMNFYSSTAFLTCIAVDRYLAVVYPLKFSFLRTRRFAFMVSLSIWVLETIFNAVILWEDETFVEYCDAKKSNFTLCYDKYPLEKWQINLNLFRTCTGYAIPLVIIMICNQKVYQAVRHNQATENSEKKRIIKLLVSITLTFVLCFTPFHVMLLIRSILEHDVNFDDHYFDDPKSGKQTYKIYRITVALTSLNCVADPILYCFVTETGRSDMWNILKFCTGKLNKSQRQRKSILSMSTKDTVELEILE
Consensus Membrane expression level (%): 59.40%

B5: consensus GPR82: consensus GPCR of human GPR82 (protein)
chain: MNNNSTCIQPSMISSMALPIIYIFLCIVGLFGNSLSQWVFLTKIGKKTSTHIYLAHLVTANLLVCSAMPFMSIYFLKGFQWEYQSAQCRVVNFLGTLSMHVSMFVSLLILSWIAISRYATLMKKDSSQETTSCYEKIFYGHLLKKFRQPNFARKLCIYIWGVVLGIIIPVIIYYSVVEATEGEESLCYNRQMELGAMISQIAGLIGTTFIGFSFLVVLTSYYSFVSHLRKIRTCTSIMEKDLTYSSVKRHLLVIQILLIVCFLPYSIFKPIFYVLHQRDDCQQLNYLIEIKNILTCLASARSSTDPIIFLLLDKTFKKTLYNLFTKSNSHMQSYG
Consensus Membrane expression level (%): 113.22%
